Results are given in words; binding and its absence hold for the method and conditions named. Binding can be weak; no strength is given.
Target: recombinant human TGFβ1 (human)
Experiment: ITC

B1: recombinant mouse GDF3 (ligand)
chain: AAISVPKGFCRNFCHRHQLFINFQDLGWHKWVIAPKGFMANYCHGECPFSMTTYLNSSNYAFMQALMHMADPKVPKAVCVPTKLSPISMLYQDSDKNVILRHYEDMVVDECGCG
- binding: binds

Reference: publication doi:10.1101/2022.11.07.515236 (bioRxiv, 2022)
